Laboratory results: article PMC4132184
No constants are given. Whether binding was seen depends on the method and setting. In cells and extracts the contact can be indirect. A yes stands for co-enrichment or nearness to the bait. Other partners may have been found. Tags and fused reporters may be left off the sequences shown.

Protein sequences, listed by entry. Tags and fused reporters are not part of them. Lines headed by an entry give the natural chain unless they say otherwise; changes in a name come on top.
UniProt O44729: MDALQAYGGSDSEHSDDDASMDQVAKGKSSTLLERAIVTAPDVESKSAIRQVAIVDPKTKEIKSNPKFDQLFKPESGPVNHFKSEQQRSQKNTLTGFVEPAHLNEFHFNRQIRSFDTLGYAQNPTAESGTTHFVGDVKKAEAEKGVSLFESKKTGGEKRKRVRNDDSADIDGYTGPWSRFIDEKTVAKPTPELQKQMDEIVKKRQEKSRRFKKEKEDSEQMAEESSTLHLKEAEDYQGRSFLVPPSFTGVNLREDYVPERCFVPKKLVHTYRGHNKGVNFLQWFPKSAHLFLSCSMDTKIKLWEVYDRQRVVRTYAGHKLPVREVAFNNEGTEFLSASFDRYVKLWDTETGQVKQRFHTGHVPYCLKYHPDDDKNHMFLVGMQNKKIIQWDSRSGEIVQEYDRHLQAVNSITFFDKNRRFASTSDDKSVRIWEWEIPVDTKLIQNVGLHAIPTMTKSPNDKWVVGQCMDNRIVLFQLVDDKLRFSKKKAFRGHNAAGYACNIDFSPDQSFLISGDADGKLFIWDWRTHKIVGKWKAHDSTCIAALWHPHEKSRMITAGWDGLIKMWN
UniProt Q9GRZ1: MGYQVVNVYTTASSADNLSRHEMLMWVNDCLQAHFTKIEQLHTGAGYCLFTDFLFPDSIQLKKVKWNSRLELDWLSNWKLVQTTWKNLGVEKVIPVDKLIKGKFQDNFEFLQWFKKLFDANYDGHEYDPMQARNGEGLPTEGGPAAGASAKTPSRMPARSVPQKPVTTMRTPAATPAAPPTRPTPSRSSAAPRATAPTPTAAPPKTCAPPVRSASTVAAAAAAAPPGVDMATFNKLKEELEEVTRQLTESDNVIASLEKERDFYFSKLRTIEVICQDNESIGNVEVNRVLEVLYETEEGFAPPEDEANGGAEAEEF
UniProt Q23463: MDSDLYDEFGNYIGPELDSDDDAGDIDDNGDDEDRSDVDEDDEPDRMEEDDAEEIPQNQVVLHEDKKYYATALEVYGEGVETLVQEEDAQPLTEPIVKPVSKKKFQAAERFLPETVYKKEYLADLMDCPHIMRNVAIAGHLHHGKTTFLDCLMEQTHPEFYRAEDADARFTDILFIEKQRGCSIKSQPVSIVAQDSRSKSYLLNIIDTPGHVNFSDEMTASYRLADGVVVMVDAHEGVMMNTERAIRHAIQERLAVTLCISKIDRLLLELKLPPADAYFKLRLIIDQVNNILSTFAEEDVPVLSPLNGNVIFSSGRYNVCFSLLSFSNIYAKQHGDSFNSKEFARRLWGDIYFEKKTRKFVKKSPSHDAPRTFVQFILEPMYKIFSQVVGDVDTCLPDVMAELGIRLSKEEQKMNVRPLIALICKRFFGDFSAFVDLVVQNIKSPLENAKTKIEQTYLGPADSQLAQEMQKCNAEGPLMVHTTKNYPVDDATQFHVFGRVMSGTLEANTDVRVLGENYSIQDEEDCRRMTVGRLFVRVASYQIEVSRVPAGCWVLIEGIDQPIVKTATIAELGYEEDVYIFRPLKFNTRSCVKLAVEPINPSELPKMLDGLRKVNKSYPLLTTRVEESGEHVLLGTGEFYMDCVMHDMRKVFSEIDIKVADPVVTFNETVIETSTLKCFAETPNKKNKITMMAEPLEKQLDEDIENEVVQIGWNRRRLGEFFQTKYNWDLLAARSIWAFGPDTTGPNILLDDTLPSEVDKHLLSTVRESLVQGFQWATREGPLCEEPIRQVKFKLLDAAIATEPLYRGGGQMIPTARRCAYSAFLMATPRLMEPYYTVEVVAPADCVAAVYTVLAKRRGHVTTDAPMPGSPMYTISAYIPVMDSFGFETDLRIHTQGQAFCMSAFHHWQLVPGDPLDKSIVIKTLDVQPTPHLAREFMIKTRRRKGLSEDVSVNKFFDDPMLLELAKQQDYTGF
UniProt Q22836: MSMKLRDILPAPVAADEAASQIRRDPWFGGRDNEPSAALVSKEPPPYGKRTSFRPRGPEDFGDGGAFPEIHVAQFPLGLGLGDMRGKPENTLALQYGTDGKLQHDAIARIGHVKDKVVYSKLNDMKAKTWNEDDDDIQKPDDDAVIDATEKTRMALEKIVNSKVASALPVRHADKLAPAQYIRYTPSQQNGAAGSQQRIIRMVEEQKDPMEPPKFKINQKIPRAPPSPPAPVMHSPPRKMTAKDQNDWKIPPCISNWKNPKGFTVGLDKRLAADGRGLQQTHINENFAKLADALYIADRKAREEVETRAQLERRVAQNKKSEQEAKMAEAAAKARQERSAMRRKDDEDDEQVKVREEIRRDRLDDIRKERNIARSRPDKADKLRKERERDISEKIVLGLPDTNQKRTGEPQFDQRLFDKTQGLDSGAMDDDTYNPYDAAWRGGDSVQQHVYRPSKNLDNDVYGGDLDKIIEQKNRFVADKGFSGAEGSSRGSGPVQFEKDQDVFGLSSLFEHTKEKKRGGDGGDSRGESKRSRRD

Target: T1, FLAG::HA::CACN-1A (C. elegans) (UniProt G5EG14)
T1 sequence: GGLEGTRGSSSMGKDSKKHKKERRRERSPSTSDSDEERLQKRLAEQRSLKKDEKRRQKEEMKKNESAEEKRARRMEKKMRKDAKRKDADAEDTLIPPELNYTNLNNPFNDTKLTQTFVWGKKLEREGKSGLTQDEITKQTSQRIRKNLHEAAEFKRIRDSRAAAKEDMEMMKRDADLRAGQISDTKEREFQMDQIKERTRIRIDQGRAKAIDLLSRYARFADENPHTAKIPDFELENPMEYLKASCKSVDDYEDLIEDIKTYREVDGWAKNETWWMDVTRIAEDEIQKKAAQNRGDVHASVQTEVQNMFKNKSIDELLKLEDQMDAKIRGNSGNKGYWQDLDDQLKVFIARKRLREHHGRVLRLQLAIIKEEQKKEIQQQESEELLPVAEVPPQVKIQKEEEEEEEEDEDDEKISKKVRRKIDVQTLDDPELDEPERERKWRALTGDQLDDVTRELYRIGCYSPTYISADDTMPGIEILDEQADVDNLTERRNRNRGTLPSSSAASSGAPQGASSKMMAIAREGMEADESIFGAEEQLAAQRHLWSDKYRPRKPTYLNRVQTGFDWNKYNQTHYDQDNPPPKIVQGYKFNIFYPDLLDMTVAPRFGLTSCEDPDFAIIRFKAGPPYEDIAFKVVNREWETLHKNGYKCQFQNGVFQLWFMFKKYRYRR
Experiment: affinity purification with mass spectrometry; tandem affinity purification: lysate of heat-shocked mixed-stage C. elegans expressing FLAG::HA::CACN-1A bound to anti-FLAG agarose, eluted with FLAG peptide, then anti-HA agarose, eluted with HA peptide; lysis buffer 50 mM Tris pH 7.5, 150 mM NaCl, 1 mM EDTA, 0.5% NP-40, 10% glycerol; N2 lysate as negative control; two independent biological replicates; LC-MS/MS of the eluates

PRP-17 (from UniProt O44729)
binding: binds

EBP-1 (from UniProt Q9GRZ1)
binding: binds

EMB-4
binding: binds

eftu-2 (from UniProt Q23463)
binding: binds

SKP-1 (from UniProt Q22836)
binding: binds

ubl-1
binding: binds

B1: C07A9.2 (protein, UniProt P34313 1-147)
chain: MSLATKLRRVRKSPPEGWDLIEPTLEQFEAKMREAETEPHEGKRKTEINWPIFRIHHQRSRYVYDMYYKKAEISRELYEFCLTAKFADAALIAKWKKQGYENLCCVKCVNTRDSNFGTACICRVPKSKLDAERVIECVHCGCHGCSG
binding: binds

B2: PRP-19 (protein, UniProt Q10051 1-492)
chain: MSFVCGISGELTEDPVVSQVSGHIFDRRLIVKFIAENGTDPISHGELSEDQLVSLKSGGTGSAPRNVSGTSIPSLLKMLQDEWDTVMLNSFSLRQQLQIARQELSHSLYQHDAACRVISRLSKELTAAREALSTLKPHTSAKVDDDVSIDESEDQQGLSEAILAKLEEKSKSLTAERKQRGKNLPEGLAKTEELAELKQTASHTGIHSTGTPGITALDIKGNLSLTGGIDKTVVLYDYEKEQVMQTFKGHNKKINAVVLHPDNITAISASADSHIRVWSATDSSSKAIIDVHQAPVTDISLNASGDYILSASDDSYWAFSDIRSGKSLCKVSVEPGSQIAVHSIEFHPDGLIFGTGAADAVVKIWDLKNQTVAAAFPGHTAAVRSIAFSENGYYLATGSEDGEVKLWDLRKLKNLKTFANEEKQPINSLSFDMTGTFLGIGGQKVQVLHVKSWSEVVSLSDHSGPVTGVRFGENARSLVTCSLDKSLRVFSF
binding: binds

B3: snr-6 (protein, UniProt Q9XTU6 1-90)
chain: MSTRKLNKVMVQPVNLIFRYLQNRTRVQIWLYEDVTHRLEGYIIGFDEFMNVVFDEAEEVNMKTKGRNKIGRILLKGDNITLIHAAQQEA
binding: binds

B4: rsr-2 (protein, UniProt Q9U213 1-425)
chain: MYNGIGLQTARGSGTNGYVQSNLSHLMQARRKIEYNGEDDLRKMEAELNRKPNEEIMDHNRKRQIEVKCTEFEMLLEDKGLDDEDIERKVGEYRKNLLKQLESGELNVDEELSTKESHARRRAAANNRDKMRNALGLGEDYVPGSSMAKMNKSDVVGAAMESELPQKDDKEKLLETLRLHRKSKKKQESSSSSSSSSSSSESSSEDEKHRKDRKKKEKKQKLKEMEKRREKLRQKERELLAVSDKVKKEEPAESSDEEDSRKDQRKPREDRRRSVERQDQREDRRDRRRSPEDPRERRRSPEDRTVRRRSPERRRQQRSPSVERRKSPQRRDERRRRHDSSENERRSTATASKKSRMDELEVKQEPPSDSEDYIAKTNLAPIRVEKSAEKVEKSRKSSSESSSGSSDSDSSSDSSSSSDSSSDSE
binding: binds

B5: MOG-5 (protein, UniProt Q09530 1-1200)
chain: MDQLEHLSLVSKVLSEVENHFGVVEKDVAEFVIHLAQENPTFDKLKKALDSQGLGDQFDDSLTATILRIVQSMTAVKKKNKKGGDSKEDIKDSHKITLISDAKEEIKARLPALAMANTAKEKEDNEDDLMAQLEKMEGRYESEKRLQKESDSKRNRSRSRSRSRDRKRRRSRSGDRDRRRRSRSREDRRDRDRRDRDRDRDRGRGDRRGDDRQRDRRDRRDDGGARKSEVAEIGKIYDGRVNSIQSFGAFITLEGFRQKQEGLVHISQIRNERVQTVADVLKRGENVKVKVNKIENGKISLSMKEVDQNSGEDLNPRETDLNPDAIGVRPRTPPASTSSWMNPEASGVGQGPSTSIGGGKARVRISTPERWELRQMQGAGVLTATDMPDFDEEMGVLRNYDDESDGEDIEIELVEDEPDFLRGYGKGGAEIEPVKVVKNPDGSLAQAALMQGALSKERKETKIQAQRERDMDTQKGFSSNARILDPMSGNQSTAWSADESKDRNNKMKEMPEWLKHVTAGGKATYGRRTNLSMVEQRESLPIFALKKNLMEAMIDNQILVVVGETGSGKTTQMTQYAIEAGLGRRGKIGCTQPRRVAAMSVAKRVAEEYGCKLGTDVGYTIRFEDCTSQDTIIKYMTDGMLLRECLIDPDLSGYSLIMLDEAHERTIHTDVLFGLLKAAARKRPELKLIITSATLDSVKFSEYFLEAPIFTIPGRTFPVEILYTREPESDYLEAAHITVMQIHLTEPPGDVLVFLTGQEEIDTSCEVLYERMKSMGPDVPELIILPVYGALPSEMQTRIFDPAPAGKRKVVIATNIAETSLTIDGIFYVVDPGFVKQKIYNPKSGMDSLVVTPISQAAAKQRSGRAGRTGPGKCYRLYTERAFRDEMLPTPVPEIQRTNLASTLLQLKAMGINNLIDFDFMDAPPLDSMITALNTLHTLSALDGDGLLTKLGRRMAEFPLEPSLSKLLIMSVDLGCSEEVLTIVAMLNVQNIFYRPKEKQDHADQKKAKFHQPEGDHLTLLAVYNSWKNHHFSQPWCFENFIQVRSMKRAQDIRKQLLGIMDRHKLLMVSCGRDVSRVQKAICSGFFRNAAKRDPQEGYRTLTDGQNVYIHPSSACFQQQPEWVVYHELVMTTKEYMREVTAIDPKWLVEFAPSFFKIGDSTKLSTFKRNQKIDPLFDKYADANAWRITRVKKRIYNPNK
binding: binds

B6: mog-2 (protein, UniProt Q9BLB6 1-253)
chain: MVRLTTELFAERPQFVNSVNMREINLRGQKIPVIENMGVTRDQFDVIDLTDNDIRKLDNFPTFSRLNTLYLHNNRINYIAPDIATKLPNLKTLALTNNNICELGDIEPLAECKKLEYVTFIGNPITHKDNYRMYMIYKLPTVRVIDFNRVRLTEREAAKKMFKGKSGKKARDAIQKSVHTEDPSEIEPNENSSGGGARLTDEDREKIKEAIKNAKSLSEVNYLQSILASGKVPEKGWNRQMDQNGADGEAMES
binding: binds
